According to PubChem BioAssay AID2685 (National Center for Advancing Translational Sciences (NCATS), 2010):
This is one part of the list. Further columns of the screen follow, without active or inactive calls. Compounds called inactive in the main read-out are mostly missing here. Potencies come from curve fits of mixed quality, noted in brackets.

Assay: qHTS Assay for Lipid Storage Modulators in Drosophila S3 Cells;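 for cell number change: cells counted by Cell Tracker Red CMTPX staining in the red channel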
Settings: BODIPY lipid droplet fluorescence, 18-24 h; for cell number change: measured here: cell count max response, cells fed with added oleic acid
In short: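 Drosophila S3 cells got compounds at several concentrations plus oleic acid (400 uM solution). Laser-scanning cytometry with 488 nm excitation read lipid droplets at 500-530 nm and cells at 575-640 nm. Percent activity was relative to 20 uM Triacsin C.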

[1] = measured here: cell number channel AC50, cells fed with added oleic acid
[2] = measured here: lipid fluorescence (Fed channel) AC50, cells fed with added oleic acid

| SMILES | cell number change [%] | AC50 [1] | AC50 [2] |
| --- | --- | --- | --- |
| O=C1Nc2ccc(F)cc2C12Nc1ccccc1-c1nnc(SCc3ccccc3Cl)nc1O2 (stereo unspecified) | -12.2 |  |  |
| COC(=O)c1ccc(N2CCN(S(=O)(=O)c3ccc(C)cc3)CC2)c([N+](=O)[O-])c1 | 84 | 6.51 µM [falling, single point] | 6.51 µM [falling, single point] |
| O=C(N=Nc1ccc(NOC(=O)c2ccccc2Br)cc1)c1ccccc1O |  | 1.3 µM [rising, full curve] | 0.731 µM [rising, partial curve, poor fit] |
| O=C(NCc1ccccc1)c1ccc(F)c(S(=O)(=O)N2CCOCC2)c1 | -3.53 | 0.184 µM [falling, full curve, poor fit] |  |
| CCOc1ccc2oc(C(=O)Nc3ccc4c(c3)OCO4)c(C)c2c1 | 18.4 |  |  |
| Cc1ccc(C(C)C)c(OCC(=O)Nn2c(=O)[nH]c3ccccc3c2=O)c1 | -56.7 | 29.1 µM [falling, single point] |  |
| COCCN=c1scc(-c2cccs2)n1/N=C/c1ccc(O)c(O)c1O | -21.1 |  | 14.6 µM [falling, single point] |
| CN1/C(=C\C=C2/SC(=S)N(CC(=O)O)C2=O)C(C)(C)c2ccccc21 | -98 | 7.31 µM [falling, partial curve] | 2.31 µM [falling, partial curve] |
| CC(C)CN(C(=O)COC(=O)COc1ccc2ccccc2c1)c1c(N)n(Cc2ccccc2)c(=O)[nH]c1=O | -73.5 | 23.1 µM [falling, single point] |  |
| CCC(C)c1ccc(NC(=S)N2CCN(S(C)(=O)=O)CC2)cc1 (stereo unspecified) | 7.54 |  | 6.51 µM [rising, single point] |
| COc1cccc(NC(=O)CN(C)C(=O)c2cccc(NS(=O)(=O)c3ccccc3)c2)c1 | -0.777 |  | 6.51 µM [falling, single point] |
| COc1ccc(NC(=O)N2CCN(S(C)(=O)=O)CC2)c(OC)c1 | -35.3 | 29.1 µM [falling, single point] | 29.1 µM [falling, single point] |
| Cc1cc(NC(=O)CSc2cn(CCNC(=O)c3ccc(F)cc3)c3ccccc23)no1 | -31.1 | 8.2 µM [falling, partial curve, poor fit] | 0.146 µM [falling, full curve, poor fit] |
| CC(C)N1CCN(c2ccncc2S(=O)(=O)N2CCOCC2)CC1 | -29.5 | 3.66 µM [falling, full curve, poor fit] | 29.1 µM [falling, single point] |

A different layout for some results above.
CCC(C)c1ccc(NC(=S)N2CCN(S(C)(=O)=O)CC2)cc1 (stereo unspecified)
  cell number change [%]: 7.54
  AC50 [2]: 6.51 µM [rising, single point]
COc1ccc(NC(=O)N2CCN(S(C)(=O)=O)CC2)c(OC)c1
  cell number change [%]: -35.3
  AC50 [1]: 29.1 µM [falling, single point]
  AC50 [2]: 29.1 µM [falling, single point]
